Measurements reported in PubChem BioAssay AID1053208 (Peter MacCallum Cancer Centre, 2014)
The whole screen tested about 17,000 reagents; this is an unselected part. 788 of all reagents (4.7%) count as active. 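Calls rest on z-score classes alone; an extra cut-off of viability at most 70% of control was not applied to them.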 Entries without a mark were called inactive.

Assay: 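Find knock-downs that sensitise mouse osteosarcoma cells to doxorubicin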 (primary screen)
System: mouse osteosarcoma cells, early-passage culture from an engineered mouse model of fibroblastic bone tumour
Reagents: siRNA pool against mouse genes, 40 nM
Duration: about 120 h (48 h before drug, then 72 h with drug)
Conditions: doxorubicin 100 nM for 72 h, roughly 30-40% inhibitory dose
Detection: 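Viability read as ATP luminescence after 72 h of 100 nM doxorubicin or none, duplicate wells averaged, scaled to non-targeting siRNA, then expressed as robust z-scores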
Direction: viability z-score with doxorubicin and doxorubicin viability vs non-targeting: higher = more viable cells under doxorubicin; viability z-score without drug: higher = more viable cells with knock-down alone; z-score of drug to no-drug ratio: higher = less drug sensitisation by knock-down
Call rule: 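Called active if knock-down leaves viability unchanged without drug (z within -2 to 2) but lowers it with doxorubicin (z at or under -2)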

gene symbol,combined z-score class,viability z-score with doxorubicin,viability z-score without drug,z-score of drug to no-drug ratio,doxorubicin viability vs non-targeting
Ubd,no change with or without drug,-0.67,0.84,-1.12,0.88
Dlx5,no change with or without drug,1.35,-0.17,1.69,1.06
Rab15,no change with or without drug,0.45,-0.51,1.01,0.98
Commd9,no change with or without drug,0.9,0.17,0.9,1.02
Csf3,no change with or without drug,0.79,0.67,0.45,1.01
Or13j1,no change with or without drug,-1.35,0.84,-1.8,0.82
Or7e168,no change with or without drug,-0.56,-1.18,0.34,0.89
Dcaf12l2,high cell count without drug only,-0.45,2.36,-1.69,0.9
Gnl3,no change with or without drug,-1.35,-0.84,-0.79,0.82
Fbn1,low cell count with doxorubicin only (active),-2.92,-0.51,-2.7,0.68
Pde2a,no change with or without drug,0.22,-0.17,0.45,0.96
Itih4,low cell count with doxorubicin only (active),-2.02,-1.01,-1.46,0.76
Zhx3,no change with or without drug,1.12,-0.17,1.46,1.04
Commd4,no change with or without drug,1.35,1.18,0.67,1.06
Dpp3,no change with or without drug,1.57,-0.17,1.91,1.08
Pex39,no change with or without drug,-0.11,1.01,-0.67,0.93
Ubxn2b,no change with or without drug,1.24,-0.17,1.57,1.05
Pex2,no change with or without drug,-0.45,0.34,-0.56,0.9
Dbpht2,no change with or without drug,0.34,0.84,-0.11,0.97
Nr4a3,high cell count with doxorubicin only,2.59,-0.17,2.92,1.17

Sorted by “viability z-score with doxorubicin” (lowest first): some entries from above.
gene symbol,combined z-score class,viability z-score with doxorubicin,viability z-score without drug,z-score of drug to no-drug ratio,doxorubicin viability vs non-targeting
Or13j1,no change with or without drug,-1.35,0.84,-1.8,0.82
Csf3,no change with or without drug,0.79,0.67,0.45,1.01
Commd9,no change with or without drug,0.9,0.17,0.9,1.02
